Results are given in words; binding and its absence hold for the method and conditions named.
Target: integrin α2 I domain (UniProt P17301)
Experiment: SEC; 6xHis-tagged I domains on Superdex 200 Increase 10/300 GL in integrin storage buffer (20 mM tris-HCl pH 7.4, 150 mM NaCl, 1 mM MgCl2, 1 mM CaCl2); both purified

Chains of the proteins cited; added tags and fusions are not shown. Residues count along the entry.
UniProt P17301, residues 174-365: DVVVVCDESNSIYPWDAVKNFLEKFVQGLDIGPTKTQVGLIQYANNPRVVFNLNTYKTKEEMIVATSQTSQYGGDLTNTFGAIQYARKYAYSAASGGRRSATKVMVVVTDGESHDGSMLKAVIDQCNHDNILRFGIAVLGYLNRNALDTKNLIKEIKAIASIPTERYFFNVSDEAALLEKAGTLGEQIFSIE

binding: no binding
Substance: integrin α2 I domain (from UniProt P17301 174-365) (domain or fragment)
